Results are given in words; binding and its absence hold for the method and conditions named. Some entries that bind do so weakly or less than the wild type.
Molecular target: T1, retinoic acid-related orphan nuclear receptor α (RORα) wild type (UniProt P35398)
T1 sequence (K38 mono-methylated by EZH2 in cells (the fraction methylated is not stated), looked up): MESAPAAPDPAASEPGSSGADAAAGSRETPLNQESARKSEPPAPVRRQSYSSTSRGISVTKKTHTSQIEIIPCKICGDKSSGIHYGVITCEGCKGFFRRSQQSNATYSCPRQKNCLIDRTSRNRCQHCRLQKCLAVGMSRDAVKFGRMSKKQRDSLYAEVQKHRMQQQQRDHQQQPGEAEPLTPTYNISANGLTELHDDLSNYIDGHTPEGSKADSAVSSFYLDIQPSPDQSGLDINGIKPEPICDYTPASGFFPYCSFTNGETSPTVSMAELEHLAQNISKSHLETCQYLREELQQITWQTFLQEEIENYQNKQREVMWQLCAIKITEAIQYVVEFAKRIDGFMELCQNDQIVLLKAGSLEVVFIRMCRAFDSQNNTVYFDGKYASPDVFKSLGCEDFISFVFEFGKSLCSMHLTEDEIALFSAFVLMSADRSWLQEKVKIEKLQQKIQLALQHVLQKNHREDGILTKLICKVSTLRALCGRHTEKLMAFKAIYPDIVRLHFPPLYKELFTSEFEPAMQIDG
Experiment: immunoprecipitation with anti-HA (HA-DCAF1 chromo domain), immunoblot with anti-Flag (FIG. 45)

Sequences of proteins named here, by UniProt entry; tags and fusion partners are left off. Residues count along the entry.
UniProt Q9Y4B6, residues 562-593: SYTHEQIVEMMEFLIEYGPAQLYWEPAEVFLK

- binding: binds
Substance: HA-DCAF1 chromo domain (from UniProt Q9Y4B6 562-593)

— patent publication US20150105326A1
